Assay results reported in patent US20200360469A1.
Results are given in words; binding and its absence hold for the method and conditions named. Binding seen in cells or lysates may run through a third protein. Some results given as binding are weak or reduced against the parent protein; the word gives no strength.

Amino acid sequences for entries named in this document (tags omitted). Residues count along the entry.
UniProt P15056, residues 2-766: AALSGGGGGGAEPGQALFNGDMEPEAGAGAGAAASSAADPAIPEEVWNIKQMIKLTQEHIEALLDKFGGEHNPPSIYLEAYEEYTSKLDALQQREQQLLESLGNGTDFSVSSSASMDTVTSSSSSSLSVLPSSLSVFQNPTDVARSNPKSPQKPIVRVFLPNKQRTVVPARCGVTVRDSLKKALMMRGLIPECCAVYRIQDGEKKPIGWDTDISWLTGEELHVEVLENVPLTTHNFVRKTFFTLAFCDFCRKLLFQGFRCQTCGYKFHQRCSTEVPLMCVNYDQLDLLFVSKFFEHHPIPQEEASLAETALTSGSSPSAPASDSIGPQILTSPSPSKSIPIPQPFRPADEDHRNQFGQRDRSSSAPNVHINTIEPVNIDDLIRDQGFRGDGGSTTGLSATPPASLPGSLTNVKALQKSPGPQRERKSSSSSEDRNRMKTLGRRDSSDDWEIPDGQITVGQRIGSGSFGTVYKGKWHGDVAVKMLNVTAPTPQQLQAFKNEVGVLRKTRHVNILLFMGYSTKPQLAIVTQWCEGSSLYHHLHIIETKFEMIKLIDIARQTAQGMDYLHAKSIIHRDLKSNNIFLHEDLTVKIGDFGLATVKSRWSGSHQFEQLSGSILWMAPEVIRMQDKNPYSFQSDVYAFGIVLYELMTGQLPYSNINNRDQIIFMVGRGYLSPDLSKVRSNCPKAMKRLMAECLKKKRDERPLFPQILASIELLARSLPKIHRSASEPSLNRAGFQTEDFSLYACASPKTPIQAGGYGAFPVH

Target: full-length (FL) BRAF^WT, 6x-HIS-BRAF-WT/FLAG (human) (UniProt P15056)
Test: co-immunoprecipitation of V5-tagged BRAF with FLAG-tagged BRAF, with or without 50 µM braftide

In the case of TRHVNILLFM [braftide], the binding is reported as “binds”.
